# Results from PubChem BioAssay AID2685 (National Center for Advancing Translational Sciences (NCATS), 2010).
# About 2,100 (0.66%) of roughly 320,000 compounds were called active. The inconclusive results got no clear call from the source; some entries with a clear call stand among them for comparison. The call rests on the fitted dose curve; in most records, active means well fitted inhibition curve with a large enough effect in the signal ratio, with a control signal flat (not every such curve was filed as active); inconclusive means small, poorly fitted or top-dose-only effect, or effect the other way, or a change in a side signal; inactive means flat fitted curve, though single readings scatter; the % refers to the signal ratio. Where the call is inconclusive, the potency comes from a doubtful curve fit.
# Assay: qHTS Assay for Lipid Storage Modulators in Drosophila S3 Cells
# Conditions: BODIPY lipid droplet fluorescence, 18-24 h, cells fed with added oleic acid; lipid storage change, negative = inhibition: at 46.1 µM (top of the series) unless noted
# In short: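 Laser-scanning cytometry quantifies lipid droplet accumulation (500–530 nm total intensity; droplet/cell object ratio) in oleic acid-fed (400 uM added) Drosophila S3 cells treated with a concentration series. 20 uM Triacsin C defined 100% inhibition.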
# On the % scale 0 is the no-effect control and ±100 the full control effect; potency means the concentration at half of the fitted maximal effect.
SMILES,"lipid storage change, negative = inhibition",Potency,outcome
Cc1cc(SCc2ccc(Cl)c(Cl)c2)nc(=O)[nH]1,inconclusive: 103%,,
Cc1cc(SCC(=O)NC2CCCCC2)nc2ccccc12,,"inconclusive: 29.1 µM [activator, single point]",
CCCc1c2ccccc2nc2ccccc12,inconclusive: 17.3%,,
COc1ccc(S(=O)(=O)N2CCCCCC2)cc1C(=O)NC1(C)CCS(=O)(=O)C1 (centres undefined),,"inconclusive: 0.0058 µM [activator, full curve, poor fit]",
Cc1cc(N2CCOCC2)nc(N)n1,inconclusive: 3.12%,,
COCCNC(=O)C(=O)NCCN1CCOCC1,inactive: -0.917%,,
CNc1snc(C)c1C(=O)OCC(=O)c1ccc(OC)c(F)c1,,"inconclusive: 29.1 µM [falling, single point]",
COc1cccc(NC(=O)C(C#N)Cc2ccncc2)c1 (centres undefined),inconclusive: 10.1%,,
COc1ccc(S(=O)(=O)N2CCCCCC2)cc1C(=O)Nc1ccc(C)cn1,,,inactive [at 46.1 µM]
Cc1cc(C)n(C(=O)CNC(=O)c2cccs2)n1,inconclusive: -4.65%,,
CCN(CC)S(=O)(=O)c1cc(C(=O)Nc2nncs2)c(Cl)cc1Cl,inconclusive: -28.2%,,
COc1ccc(/C=N\NC(=O)C2COc3ccccc3O2)cc1O (centres undefined),,"inconclusive: 11.6 µM [activator, partial curve]",
CN(C)c1ccc(C(=S)NCc2ccco2)cc1,,"inconclusive: 20.6 µM [activator, single point]",
CC(C)CNC(=O)CSc1nc(-c2cccs2)cc(C(F)(F)F)n1,inconclusive: -32.7%,,
Cc1cccc(Nc2nnc(SCC(=O)c3ccc(O)cc3O)s2)c1,inconclusive: -61.6%,,
COc1ccc(/C=C/C(=O)NCCOc2ccccc2OC)cc1,,"inconclusive: 0.146 µM [activator, full curve, poor fit]",
CC1(C)Cc2c(sc(NC(=O)c3ccc(Br)o3)c2C#N)CO1,inconclusive: 23.1%,,
CC(=O)Nc1ccc(NC(=S)NC(=O)c2oc3ccccc3c2C)cc1,inconclusive: 11.1%,,
CCC(OC(=O)c1ccco1)C(=O)NCc1ccc(C)cc1 (centres undefined),inconclusive: 89.9%,,
CC(Sc1nnc(C2CC2)n1C1CC1)C(=O)N(C)Cc1cccc(F)c1 (centres undefined),inconclusive: 91.7%,,
CCCCn1c(SCC(=O)Nc2ccc3c(c2)OCO3)nc2c1c(=O)n(C)c(=O)n2C,,"inconclusive: 1.84 µM [cytotoxic, partial curve]",
Cc1ccc(C(=O)N2CCN(S(=O)(=O)N3CCCCCC3)CC2)cc1,inconclusive: -155%,,
O=C(NCc1ccccc1)c1cccc(F)c1F,inconclusive: 145%,,
CC(C)c1ccc(N(C(=O)c2ccco2)C(C(=O)NC2CCCC2)c2cccnc2)cc1 (centres undefined),inconclusive: 59%,,
CC1CCN(c2[nH]c(=S)c(C#N)c3c2CCCC3)CC1,inconclusive: 206%,,
Cc1ccc(NC(=O)CCNC(=O)c2ccccc2Cl)nc1,,"inconclusive: 29.1 µM [activator, partial curve]",
CC(=O)c1ccc(NC(=O)CN2CCC(C(=O)c3ccc(F)cc3)CC2)cc1,,"inconclusive: 29.1 µM [activator, single point]",

SMILES,"lipid storage change, negative = inhibition",Potency,outcome
Cn1nc(-c2ccc(C(=O)N3CCN(CCO)CC3)cc2)c2ccccc2c1=O,,"inconclusive: 1.84 µM [falling, partial curve, poor fit]",
O=C(NCc1ccc(F)cc1)c1cccc(S(=O)(=O)N2CCOCC2)c1,,"inconclusive: 0.0058 µM [falling, full curve, poor fit]",
O=C(NC1CCCC1)C(c1ccncc1)N(C(=O)Cc1cccs1)c1ccc(F)cc1 (centres undefined),,active: 29.1 µM,
COc1cc(C)ccc1OCc1cc(C(=O)N(Cc2c(C)nn(C)c2C)C2CC2)no1,inconclusive: 196%,,
CC(C)c1ccc(N(C(=O)c2csnn2)C(C(=O)NC(C)(C)C)c2cccnc2)cc1 (centres undefined),,"inconclusive: 29.1 µM [cytotoxic, single point]",
CCOc1ncccc1C(=O)OCC(=O)N1CCc2ccccc21,,"inconclusive: 0.082 µM [falling, partial curve]",
Cc1ccc(NC(=O)CSCC(=O)Nc2cc(Cl)ccc2N2CCOCC2)cc1,inconclusive,,
CCCCn1cnc2c(oc3ccccc32)c1=O,inconclusive: -42.6%,,
CC1(C)CC2CC(C)(CN2C(=O)C23CCC(C)(C(=O)O2)C3(C)C)C1 (centres undefined),,"inconclusive: 20.6 µM [activator, partial curve]",
Cc1cccc(NC(=S)NC2CCCC2)c1C,inconclusive: -58.7%,,
COc1ccccc1CNc1ncccn1,inconclusive: -29.9%,,
Cn1nc(C(=O)NNC(=O)C(CCC(N)=O)NS(=O)(=O)c2ccc(Cl)cc2)c2ccccc2c1=O (centres undefined),inactive: 6.87%,,
COc1ccc(-c2cc(=O)oc3c(C)c(OCC(=O)N(C)C)ccc23)cc1,,,inactive [at 46.1 µM]
CCOc1ccccc1N(C(=O)c1ccco1)C(C(=O)NC1CCCC1)c1cccs1 (centres undefined),inconclusive: 18.6%,,
CC(C)[C@H](NC(=O)N1CCn2c1nc1ccccc12)C(=O)NCc1ccccc1Cl,inconclusive: -75.9%,,
CC(Sc1nnc(NC2CCCCC2)s1)C(=O)N1CCOCC1 (centres undefined),inconclusive: 5.78%,,
C=CCn1c(SCC(=O)N2CCCCCC2)nc2ccccc2c1=O,inconclusive: -34.7%,,
COc1cc(/C=C(/C#N)c2ccccc2F)ccc1OCc1ccccc1,,"inconclusive: 16.4 µM [falling, single point]",
CC(O)c1n(C)c(Cl)c[n+]1C (centres undefined),inconclusive: -7.21%,,
CC(=O)Nc1ccc(Oc2ccc([N+](=O)[O-])cc2Cl)cc1,inconclusive: 20%,,
Cc1csc(N2CCCC2=O)n1,inconclusive: 15.1%,,
CS(=O)(=O)N(CC(=O)N1CCN(c2ccccc2)CC1)C1CCCCC1,,"inconclusive: 0.0052 µM [falling, full curve, poor fit]",
CCN(C(=O)COC(=O)c1ccc(Cl)c(N)c1)C1CCS(=O)(=O)C1 (centres undefined),inactive: 0.308%,,
Cc1cc(C(F)(F)F)c(C#N)c(SCC(=O)NC2CC2)n1,inconclusive: 67.3%,,
O=c1[nH]c(C2CCN(S(=O)(=O)/C=C/c3ccccc3)CC2)nc2c1nnn2Cc1ccc(F)cc1,inconclusive: 30.5%,,
CC(=O)c1ccc(N2CCN(C(=O)C(=O)c3cn(CC(=O)N4CCCCCC4)c4ccccc34)CC2)cc1,,active: 16.4 µM,
O=C1CN(C(=O)c2ccc(Cl)nc2)c2ccccc2N1,,"inconclusive: 1.46 µM [falling, full curve, poor fit]",

# Entries shown so far with a CF3 group:
SMILES,"lipid storage change, negative = inhibition",Potency,outcome
CC(C)CNC(=O)CSc1nc(-c2cccs2)cc(C(F)(F)F)n1,inconclusive: -32.7%,,
Cc1cc(C(F)(F)F)c(C#N)c(SCC(=O)NC2CC2)n1,inconclusive: 67.3%,,

# An excerpt of these results, tab-delimited.
SMILES	lipid storage change, negative = inhibition	Potency	outcome
COc1ccc(S(=O)(=O)N2CCCCCC2)cc1C(=O)Nc1ccc(C)cn1			inactive [at 46.1 µM]
CCN(CC)S(=O)(=O)c1cc(C(=O)Nc2nncs2)c(Cl)cc1Cl	inconclusive: -28.2%		

# Following part:

SMILES,"lipid storage change, negative = inhibition",Potency,outcome
Nc1ncn(C23CC4CC(CC(C4)C2)C3)n1,,"inconclusive: 6.51 µM [falling, single point]",
COc1cccc(NC(=O)CCN2CCOCC2)c1,inconclusive: 18.4%,,
COc1ccc2cc(OCC(=O)NNC(=O)Nc3ccc(OC)c(OC)c3)ccc2c1,inconclusive: 6.28%,,
O=C(Nc1nc(-c2ccccn2)cs1)c1cccc(-n2cnnn2)c1,inconclusive: -18.5%,,
CCOC(=O)c1ccc(OCCOc2cccc(C)c2)cc1,,"inconclusive: 14.6 µM [activator, partial curve]",
CCn1c(SCC(=O)Nc2ccccc2C(=O)OC)nnc1-c1cccc(C)c1,,"inconclusive: 0.206 µM [activator, full curve, poor fit]",
COc1ccc2cc(CN(CCc3ccccc3)Cc3nnnn3CC3CCCO3)c(=O)[nH]c2c1 (centres undefined),inconclusive: 2.34%,,
O=C1CCCN=C(Nc2ccc(F)c(Cl)c2)S1,inconclusive: 10.2%,,
COC(=O)c1ccc(CSc2nc3ccccc3c(=O)n2C)o1,inconclusive: 0.178%,,
O=C(NCc1ccccn1)c1nc(-c2ccc(C(F)(F)F)cc2)no1,inconclusive: 4.75%,,
CNC(=O)NCC12CC3CC(CC(C3)C1)C2,inconclusive: 12.1%,,
CC(C)[C@H](NC(=O)Nc1ccc(S(N)(=O)=O)cc1)C(=O)O,,"inconclusive: 16.4 µM [falling, single point]",
CN(C)CCCN(C(=O)c1ccc2c(c1)CCCC2)c1nc2cc3c(cc2s1)OCO3,inconclusive: -17.3%,,
CN=C1SC(CC(=O)Nc2ccc(N3CCOCC3)cc2)C(=O)N1C (centres undefined),inconclusive: -46.7%,,
CC(C)(C)NC(=O)COC(=O)c1ccc(S(=O)(=O)N2CCCCCC2)cc1,inconclusive: -40.3% [at 0.0737 µM],,
Cc1cc(Cl)ccc1OCC(=O)N(Cc1cccs1)C1CCS(=O)(=O)C1 (centres undefined),inconclusive: 7.05%,,
COc1cc(/C=C/C(=O)O)cc(S(=O)(=O)N2CCc3ccccc3C2)c1OC,,"inconclusive: 29.1 µM [falling, partial curve, poor fit]",
Cc1ccc2c(c1)/C(=N/OC(=O)c1ccc(F)cc1)CCS2,inconclusive: 51.6%,,
O=C(Cn1nnc(-c2ccccc2)n1)N/N=C/c1cccc([N+](=O)[O-])c1,inconclusive: 35.4%,,
Cc1ccc(C(=O)NCc2ccc(Cl)cc2)cc1S(=O)(=O)N1CCCCC1,inconclusive: -56%,,
COc1ccc(-c2ccc(OC)c([C@H]3[C@H]4C=CC[C@@H](C)[C@@H]4C(=O)N3Cc3ccccc3)c2)cc1OC,inconclusive: 8.29%,,
COc1ccc(C(=O)NNC(=O)C(NC(=O)c2cc(OC)cc(OC)c2)C(C)C)cc1 (centres undefined),,"inconclusive: 9.2 µM [activator, partial curve]",
Cc1ccc(-n2ncc3c2CC(C)(C)CC3NC(=O)c2ccc[n+]([O-])c2)cc1 (centres undefined),inconclusive: 11.6%,,
O=C(Nc1cccc(Cl)c1)N1N=CCC1c1ccccc1 (centres undefined),inconclusive: 38.6%,,
O=C(Cn1cnc2ccccc21)NCc1ccccc1,inconclusive: 38%,,

# Pulled by compound from the entries so far, 2 records:
SMILES,"lipid storage change, negative = inhibition",Potency,outcome
CC(C)[C@H](NC(=O)Nc1ccc(S(N)(=O)=O)cc1)C(=O)O,,"inconclusive: 16.4 µM [falling, single point]",
O=C1CCCN=C(Nc2ccc(F)c(Cl)c2)S1,inconclusive: 10.2%,,
